In publication PMC4637903:
Results are given in words; binding and its absence hold for the method and conditions named. In cells and extracts the contact can be indirect. Some entries that bind do so weakly or less than the wild type.

Sequences of proteins named here, by UniProt entry; tags and fusion partners are left off. Residues count along the entry.
UniProt P16144, residues 28-1822: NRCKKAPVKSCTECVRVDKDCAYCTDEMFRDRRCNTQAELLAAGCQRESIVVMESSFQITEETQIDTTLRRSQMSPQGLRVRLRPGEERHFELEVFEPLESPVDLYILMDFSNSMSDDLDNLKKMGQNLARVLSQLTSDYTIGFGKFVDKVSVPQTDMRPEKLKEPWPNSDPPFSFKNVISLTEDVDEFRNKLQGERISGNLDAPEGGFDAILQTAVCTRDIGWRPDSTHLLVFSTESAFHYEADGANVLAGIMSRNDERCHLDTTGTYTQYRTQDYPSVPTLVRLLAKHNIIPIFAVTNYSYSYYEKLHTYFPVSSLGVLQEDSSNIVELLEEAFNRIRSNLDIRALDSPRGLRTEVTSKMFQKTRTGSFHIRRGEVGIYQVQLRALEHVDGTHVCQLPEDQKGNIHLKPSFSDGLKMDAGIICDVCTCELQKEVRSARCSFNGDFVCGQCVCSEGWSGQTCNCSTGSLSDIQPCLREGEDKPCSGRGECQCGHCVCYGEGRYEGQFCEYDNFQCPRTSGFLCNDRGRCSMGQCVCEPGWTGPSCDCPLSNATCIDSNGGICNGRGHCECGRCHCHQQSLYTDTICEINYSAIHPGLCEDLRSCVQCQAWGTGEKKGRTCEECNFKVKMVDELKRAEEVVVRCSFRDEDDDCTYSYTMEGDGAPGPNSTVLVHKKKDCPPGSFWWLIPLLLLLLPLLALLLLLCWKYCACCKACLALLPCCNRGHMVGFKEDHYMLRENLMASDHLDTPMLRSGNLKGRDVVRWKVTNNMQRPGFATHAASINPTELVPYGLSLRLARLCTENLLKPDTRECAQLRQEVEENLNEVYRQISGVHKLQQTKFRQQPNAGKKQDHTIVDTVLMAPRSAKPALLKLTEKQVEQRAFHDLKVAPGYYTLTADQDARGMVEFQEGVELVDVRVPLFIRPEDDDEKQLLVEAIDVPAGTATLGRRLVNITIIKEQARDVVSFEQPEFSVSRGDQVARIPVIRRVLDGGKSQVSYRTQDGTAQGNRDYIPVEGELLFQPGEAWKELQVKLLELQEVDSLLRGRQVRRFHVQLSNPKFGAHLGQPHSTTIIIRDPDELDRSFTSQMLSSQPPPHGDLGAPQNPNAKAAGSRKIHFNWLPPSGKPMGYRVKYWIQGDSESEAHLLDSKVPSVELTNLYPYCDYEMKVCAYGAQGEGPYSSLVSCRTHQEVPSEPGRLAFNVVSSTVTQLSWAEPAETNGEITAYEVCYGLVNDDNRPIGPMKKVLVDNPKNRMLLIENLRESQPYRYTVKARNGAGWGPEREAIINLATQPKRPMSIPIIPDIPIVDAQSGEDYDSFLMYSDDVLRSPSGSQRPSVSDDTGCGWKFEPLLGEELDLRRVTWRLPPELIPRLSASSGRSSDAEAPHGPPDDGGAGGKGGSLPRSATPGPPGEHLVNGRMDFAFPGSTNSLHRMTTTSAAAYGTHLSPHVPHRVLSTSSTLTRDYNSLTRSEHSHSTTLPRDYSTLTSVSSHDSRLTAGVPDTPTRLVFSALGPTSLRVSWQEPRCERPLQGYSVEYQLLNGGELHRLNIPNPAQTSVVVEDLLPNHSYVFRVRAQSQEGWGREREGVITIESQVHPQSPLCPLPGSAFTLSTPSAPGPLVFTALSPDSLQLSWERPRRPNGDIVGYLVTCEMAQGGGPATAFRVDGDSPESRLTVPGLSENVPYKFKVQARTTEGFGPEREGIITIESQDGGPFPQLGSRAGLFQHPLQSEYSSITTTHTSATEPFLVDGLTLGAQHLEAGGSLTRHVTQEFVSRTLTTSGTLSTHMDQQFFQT
UniProt Q05397: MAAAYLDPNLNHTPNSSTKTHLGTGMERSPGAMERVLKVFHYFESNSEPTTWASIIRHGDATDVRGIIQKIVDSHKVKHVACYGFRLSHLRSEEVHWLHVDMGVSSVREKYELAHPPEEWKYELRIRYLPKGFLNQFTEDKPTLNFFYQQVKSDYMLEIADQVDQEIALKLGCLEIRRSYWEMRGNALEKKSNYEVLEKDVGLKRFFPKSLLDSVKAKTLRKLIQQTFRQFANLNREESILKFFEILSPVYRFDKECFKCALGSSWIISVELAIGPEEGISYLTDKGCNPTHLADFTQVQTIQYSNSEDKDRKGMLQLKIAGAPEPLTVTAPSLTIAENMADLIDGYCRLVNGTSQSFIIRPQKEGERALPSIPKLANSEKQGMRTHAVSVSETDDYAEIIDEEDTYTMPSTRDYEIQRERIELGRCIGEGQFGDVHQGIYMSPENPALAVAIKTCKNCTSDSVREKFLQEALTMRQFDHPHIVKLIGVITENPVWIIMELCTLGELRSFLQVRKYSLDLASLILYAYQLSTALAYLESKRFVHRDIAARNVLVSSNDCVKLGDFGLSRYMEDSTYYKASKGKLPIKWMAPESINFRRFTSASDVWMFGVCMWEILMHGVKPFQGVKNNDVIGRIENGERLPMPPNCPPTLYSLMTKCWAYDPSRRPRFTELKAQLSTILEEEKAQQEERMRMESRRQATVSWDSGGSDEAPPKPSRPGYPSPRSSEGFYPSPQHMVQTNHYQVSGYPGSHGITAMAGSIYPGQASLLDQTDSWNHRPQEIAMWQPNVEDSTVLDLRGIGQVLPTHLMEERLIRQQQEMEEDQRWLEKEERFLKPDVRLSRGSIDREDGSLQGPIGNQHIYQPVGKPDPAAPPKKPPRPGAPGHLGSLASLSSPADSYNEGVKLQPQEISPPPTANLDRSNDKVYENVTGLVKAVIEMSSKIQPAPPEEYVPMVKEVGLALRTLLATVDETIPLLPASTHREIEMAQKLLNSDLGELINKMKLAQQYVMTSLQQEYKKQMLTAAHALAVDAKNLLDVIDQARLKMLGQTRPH

Experiments:
[1] = biological target: β4 integrin (human (endogenous in MDA-MB-231 and other human cell lines and tissue)) (UniProt P16144); assay: co-IP; endogenous proteins in MDA-MB-231 lysate, 1 mg/ml total protein, antibody 4 h at 4 °C, protein A- or G-Sepharose; also cells transfected with HA-Src wild type, Src^Y527F or Src^K295M, treated with DMSO, PP2 or PP3 (10 μM), or serum-starved and stimulated with EGF (10 ng/ml)
[2] = biological target: β4 integrin (human (endogenous in MDA-MB-231 and other human cell lines and tissue)) (UniProt P16144); assay: co-IP; endogenous proteins in HCT-116 cells; unpublished data
[3] = biological target: β4 integrin (human (endogenous in MDA-MB-231 and other human cell lines and tissue)) (UniProt P16144); assay: co-IP; cells overexpressing increasing amounts of FAK/25aa; β4 integrin immunoprecipitated, FAK and FAK/25aa detected

Measured: binding

focal adhesion kinase (FAK) (from UniProt Q05397 1-1052) (enzyme)
binds: all assays above
